Measurements reported in article PMC10543311.
Results are given in words; binding and its absence hold for the method and conditions named. Some entries that bind do so weakly or less than the wild type.

Amino acid sequences for entries named in this document (tags omitted).
UniProt Q01844: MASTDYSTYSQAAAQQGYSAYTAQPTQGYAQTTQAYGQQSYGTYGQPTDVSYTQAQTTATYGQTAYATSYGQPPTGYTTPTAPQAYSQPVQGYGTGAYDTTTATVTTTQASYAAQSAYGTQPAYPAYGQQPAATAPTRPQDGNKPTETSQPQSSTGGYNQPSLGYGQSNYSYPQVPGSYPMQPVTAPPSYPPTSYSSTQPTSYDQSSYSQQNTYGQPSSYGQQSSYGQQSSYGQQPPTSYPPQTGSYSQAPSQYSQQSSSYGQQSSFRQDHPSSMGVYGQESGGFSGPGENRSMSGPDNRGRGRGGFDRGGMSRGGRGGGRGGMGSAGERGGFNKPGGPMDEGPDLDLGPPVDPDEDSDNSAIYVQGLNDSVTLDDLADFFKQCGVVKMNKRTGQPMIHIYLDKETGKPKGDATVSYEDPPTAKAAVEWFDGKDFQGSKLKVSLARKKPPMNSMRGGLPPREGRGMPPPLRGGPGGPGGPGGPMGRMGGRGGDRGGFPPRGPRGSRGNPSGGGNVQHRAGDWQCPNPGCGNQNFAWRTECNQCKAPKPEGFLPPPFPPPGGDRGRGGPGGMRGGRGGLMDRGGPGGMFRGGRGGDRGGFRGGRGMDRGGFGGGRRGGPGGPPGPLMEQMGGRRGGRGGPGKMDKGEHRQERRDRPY

Tests used:
[1] = target: EWSR1-SNAP (Ewing Sarcoma breakpoint region 1/EWS RNA binding protein 1, SNAP-tagged) (UniProt Q01844); assay: dynamic light scattering (DLS); derived count rate in sub-saturated solutions; 20 mM Tris.HCl pH 7.4, 100 mM KCl, 25 °C; self-association into clusters; both purified
[2] = target: EWSR1-SNAP (Ewing Sarcoma breakpoint region 1/EWS RNA binding protein 1, SNAP-tagged) (UniProt Q01844); assay: dynamic light scattering (DLS); derived count rate and size distributions in sub-saturated solutions; 20 mM Tris.Glu pH 7.4, 100 mM KGlu (with residual KCl from the stock), 25 °C; self-association into clusters; both purified

With “EWSR1-SNAP (Ewing Sarcoma breakpoint region 1/EWS RNA binding protein 1, SNAP-tagged) (from UniProt Q01844 1-656)” the binding [1] was “binds” and the binding [2] was “binds”.
